# Results: the supplement of paper PMC5949888
# ± gives the standard deviation of the averaged measurements. Most values lie at the floor of the assay. Slopes are relative: functional sequences can read slightly below zero.
# Test system: Saccharomyces cerevisiae PS128 hsf1 delta, HSF1(1-493) fusion
# Assay: growth estimate (transactivation domain function in HSF1 fusion, heat-shock survival) (a.u. (slope of normalised read count over time)); higher = stronger growth at 37°C, i.e. more transactivation activity
# Conditions: library: random library
# Method: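 Random 60-nt DNA library encoding peptides of up to 20 aa, fused to the C-terminus of yeast HSF1 residues 1-493 (C-terminal TAD deleted) and expressed from the native HSF1 promoter on a CEN plasmid in hsf1-deleted S. cerevisiae PS128. Cells were selected at 37°C on -trp 5-FOA plates for 0, 2, 4, 6 and 8 days and amplicons were sequenced. Growth estimate is the slope of a robust linear fit of total-sum-normalised read counts (normalised to the first time point) over time, using at least 2 replicates. Sequences are classed functional (TAD activity) above a threshold of -0.13, set from stop-codon control sequences.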
row,Substance,growth estimate
1,DGVEEYSIPRGILPGYILAW,< -0.25
2,DGWGW,< -0.25
3,DHAAVYWELR,< -0.25
4,DHASQCKRAMYQSFTPEPST,< -0.25
5,DHGLRGV,< -0.25
6,DHGVYWRSKAKGATSSRIPN,< -0.25
7,DHLGNFLNAVRKAM,< -0.25
8,DHNERGTWVPRGSRFVTFHA,< -0.25
9,DHPSVERAMEPLLPVSNGEA,< -0.25
10,DHPTLVSVVVNRVWFNRDGK,< -0.25
11,DHRQADLKGDGAVNSDKNTS,< -0.25
12,DHTF,< -0.25
13,DIAGSAGSLWGGAPRTASTI,< -0.25
14,DIAWV,-0.0052
15,DIC,< -0.25
16,DIE,< -0.25
17,DIEPLLRDWFRVDPGR,-0.223
18,DIFHGAKLAEKSTTTCHISV,< -0.25
19,DIGECCELAGRKRSPGAVRR,< -0.25
20,DIGKKLILCIHAALAIRGLG,< -0.25
21,DIHIMRGGTSPCL,< -0.25
22,DIKVCLWYFGT,-0.203
23,DILCYIERHLMVRRSAVCW,< -0.25
24,DILEG,< -0.25

row,Substance,growth estimate
1,DILRLNNGALVSGGDFLLSG,-0.246
2,DIQLHVGICWLHGPILTCTL,< -0.25
3,DIQPCHQVGYHTLAVHGKAP,< -0.25
4,DIRGKQPRPCNSSKTTVEAS,< -0.25
5,DIRRPPARIEKNRRIRHHNG,< -0.25
6,DIRTSYSQRPTREELFDSDS,< -0.25
7,DIVSPIEEANYLLDFGNLNV,< -0.25
8,DIWCL,-0.151
9,DKAQSPNYHDPIRWNPRPPA,< -0.25
10,DKL,< -0.25
11,DKLAEVLSETRKARERSKRR,< -0.25
12,DKSQ,< -0.25
13,DKVFHHLWPE,< -0.25
14,DLAARSGKYG,-0.217
15,DLDCRYDHSNIVVGCSAGKH,< -0.25
16,DLDFREIVTCRLVIGSVSDD,< -0.25
17,DLDVSKGSGIFGNSR,< -0.25
18,DLFRDQRSCSRCVVRCFSRR,< -0.25
19,DLFVGALIDGYEPVQDE,-0.174
20,DLGAFGRVLIGKCYHLSVLF,< -0.25
21,DLGGFHEKSF,< -0.25
22,DLGVSRAGIDIAVIGCNASN,< -0.25
23,DLGVVQVLYRLL,< -0.25
24,DLLCSGLRRQNNGFRSLITK,< -0.25

row,Substance,growth estimate
1,DLLG,< -0.25
2,DLLLLCAEGTPELLTRRQPQ,< -0.25
3,DLNYLMTYRLERRSPALLRA,-0.25
4,DLPRIMAEIT,< -0.25
5,DLQGYIQAFLALSCRLSFCL,< -0.25
6,DLQSVGPMIPARCPIIRLPS,< -0.25
7,DLQVTYLSTNLS,-0.237
8,DLRE,< -0.25
9,DLRFRHNRKSSQPRPV,< -0.25
10,DLRIDINFLAFCVPSIYGFD,-0.243
11,DLRTFVLTAILFGRCGRSHA,< -0.25
12,DLSGKK,< -0.25
13,DLSHAKPL,< -0.25
14,DLSNNSFLKIQGLDPLRL,< -0.25
15,DLSVAGPLGQRRLSPPSVRW,< -0.25
16,DLSVRSWTGAACVLEPPDSI,< -0.25
17,DLSWGVLKGYTTSPRYSRRR,< -0.25
18,DLYGSVSLHNLIMETLT,< -0.25
19,DLYLIKLGLDMWRDLG,< -0.25
20,DLYMTTTSWSPLELLRTQKV,< -0.25
21,DMADIPCVKINRRRGWVYAE,< -0.25
22,DMNVRGE,-0.193
23,DMPLGQDFNAGVYTGV,< -0.25
24,DMPVRSRYCCTPELSDCSRE,< -0.25

row,Substance,growth estimate
1,DMR,< -0.25
2,DMRHSRACCTLRIFENGRRG,< -0.25
3,DMRRRGCGSTLFTLP,< -0.25
4,DNAEACYGGRRIVGRAPFPK,< -0.25
5,DNDKTGRAHPLRSRP,< -0.25
6,DNGHYGANARVLGSSQETPG,< -0.25
7,DNGLLKVMKQRYDGIIKKAR,< -0.25
8,DNGNKSVMLVS,< -0.25
9,DNHRTGYGIPIYQGIGQTG,-0.25
10,DNNFLWASDTVSWLEEPLAN,-0.125
11,DNRDRYFLARRSIELKTSAR,< -0.25
12,DNRKGLVSYRPL,< -0.25
13,DNSFC,< -0.25
14,DNVNYLALSRFQSPCLTAS,< -0.25
15,DPAGGL,< -0.25
16,DPALRDVLFQFTILAQCAAS,< -0.25
17,DPALRVPILVWGSSSVLVDH,< -0.25
18,DPASSLSCAHLRTREWYRDQ,< -0.25
19,DPEQEIRRVPVGNAQCLLLH,< -0.25
20,DPFLVNAE,< -0.25
21,DPGASRCCGRGGSVLIDFSR,< -0.25
22,DPGDFWIRGSRSHFTGANVP,< -0.25
23,DPH,< -0.25
24,DPKCLPYPTG,< -0.25

row,Substance,growth estimate
1,DPLSDEGRETTISVFQTRDR,< -0.25
2,DPQSMHLVVGSTRSWLRLAG,< -0.25
3,DPRRTKRVLCPVHT,< -0.25
4,DPRSVDVWKELNDNMAVTDI,< -0.25
5,DQAAGASGCEWFVVGRMIGC,< -0.25
6,DQADVGVVYIVP,< -0.25
7,DQFQR,< -0.25
8,DQGLFLSVFTLLRRPEVIKQ,< -0.25
9,DQGMSWYIWSHKRMAC,< -0.25
10,DQLGNSG,< -0.25
11,DQPLKFFIRDVRARAGYGRE,< -0.25
12,DQRAKSSSRGTWSLAATPPR,< -0.25
13,DQRSNRFNSRK,< -0.25
14,DQSDGMFSNAVEACRHLSEQ,< -0.25
15,DQSIGPLLAVYHPASVTGRE,< -0.25
16,DQVLVFWGGTSTVPLSGGSL,< -0.25
17,DQWQKADFELRPAH,-0.0647
18,DQYSGWSACSKDRLSAGFLV,< -0.25
19,DRAAAGSVTKFFPRPSTQVR,< -0.25
20,DRAAIWLYGRFSTDSARLV,0.183
21,DRCTHGCDYIRSI,< -0.25
22,DREIEGGIQL,-0.246
23,DRG,< -0.25
24,DRGSTGRTNSIDRFPRSKRV,-0.244

row,Substance,growth estimate
1,DRGVEMPHCKSVQQLRRTSR,-0.136
2,DRINVLDGHSISEAWSRWL,0.26
3,DRITC,< -0.25
4,DRKLQRASLMKLSRKVPH,< -0.25
5,DRLMNDSVLRCGRTNSDIGS,< -0.25
6,DRMITLTFA,< -0.25
7,DRMMVYSRSVL,< -0.25
8,DRNGVEFWATVEERHRIACR,< -0.25
9,DRNYLLGDMLV,< -0.25
10,DRPTGPLISGERGKAVGPCP,< -0.25
11,DRPTSVDQPRSSYGETERLW,< -0.25
12,DRQRASCFITRKGLPQG,< -0.25
13,DRRAKDGRLELWRG,< -0.25
14,DRREQ,< -0.25
15,DRRESITGGSPVWSGSIARP,< -0.25
16,DRRQGRDLLNAVWKVKLIAE,< -0.25
17,DRS,< -0.25
18,DRSALRVCRRSVPEPRLG,< -0.25
19,DRSCAKNPTSCQPHTGRQQY,< -0.25
20,DRSKRVELTVTSVPPPQWNM,< -0.25
21,DRTPIA,< -0.25
22,DRTVVL,< -0.25
23,DRVGDVAKPAMSALALWILE,< -0.25
24,DRVQN,< -0.25

row,Substance,growth estimate
1,DRVSDRE,< -0.25
2,DRVSY,< -0.25
3,DRWVGPERLRM,< -0.25
4,DSAN,< -0.25
5,DSARLWHWPERCLTAAVMPA,< -0.25
6,DSCLGRGRYCVLVMLDLSPG,< -0.25
7,DSDIFESKNGHGFKSIKPVP,< -0.25
8,DSFDPR,-0.231
9,DSGI,< -0.25
10,DSHDGGKWASAPG,< -0.25
11,DSHPPLRSPENKHGSVQSTL,< -0.25
12,DSINFHYILSYTRVWPLILG,< -0.25
13,DSKSPDKDRNLLSSFRVLYW,< -0.25
14,DSLK,< -0.25
15,DSLRRAVQRQR,-0.243
16,DSMLLSGED,< -0.25
17,DSMVYHPDSTSELQISSDYT,< -0.25
18,DSNVTC,< -0.25
19,DSP,< -0.25
20,DSQEFARNACQNAPSLL,-0.228
21,DSR,< -0.25
22,DSRD,< -0.25
23,DSRGCLSRESRQVQNGVSRL,-0.243
24,DSRYFHG,< -0.25

# In a second layout: entries from further up.
row	Substance	growth estimate
22	DMNVRGE	-0.193
23	DMPLGQDFNAGVYTGV	< -0.25
24	DMPVRSRYCCTPELSDCSRE	< -0.25
1	DMR	< -0.25
2	DMRHSRACCTLRIFENGRRG	< -0.25
3	DMRRRGCGSTLFTLP	< -0.25
4	DNAEACYGGRRIVGRAPFPK	< -0.25
5	DNDKTGRAHPLRSRP	< -0.25
6	DNGHYGANARVLGSSQETPG	< -0.25
7	DNGLLKVMKQRYDGIIKKAR	< -0.25
8	DNGNKSVMLVS	< -0.25
9	DNHRTGYGIPIYQGIGQTG	-0.25
10	DNNFLWASDTVSWLEEPLAN	-0.125
11	DNRDRYFLARRSIELKTSAR	< -0.25
12	DNRKGLVSYRPL	< -0.25
13	DNSFC	< -0.25
14	DNVNYLALSRFQSPCLTAS	< -0.25
15	DPAGGL	< -0.25
16	DPALRDVLFQFTILAQCAAS	< -0.25
17	DPALRVPILVWGSSSVLVDH	< -0.25
18	DPASSLSCAHLRTREWYRDQ	< -0.25
19	DPEQEIRRVPVGNAQCLLLH	< -0.25
20	DPFLVNAE	< -0.25
21	DPGASRCCGRGGSVLIDFSR	< -0.25
22	DPGDFWIRGSRSHFTGANVP	< -0.25
23	DPH	< -0.25
24	DPKCLPYPTG	< -0.25
1	DPLSDEGRETTISVFQTRDR	< -0.25
2	DPQSMHLVVGSTRSWLRLAG	< -0.25
3	DPRRTKRVLCPVHT	< -0.25
4	DPRSVDVWKELNDNMAVTDI	< -0.25
5	DQAAGASGCEWFVVGRMIGC	< -0.25
6	DQADVGVVYIVP	< -0.25
7	DQFQR	< -0.25
8	DQGLFLSVFTLLRRPEVIKQ	< -0.25
9	DQGMSWYIWSHKRMAC	< -0.25
10	DQLGNSG	< -0.25
11	DQPLKFFIRDVRARAGYGRE	< -0.25
12	DQRAKSSSRGTWSLAATPPR	< -0.25
13	DQRSNRFNSRK	< -0.25
14	DQSDGMFSNAVEACRHLSEQ	< -0.25
15	DQSIGPLLAVYHPASVTGRE	< -0.25
16	DQVLVFWGGTSTVPLSGGSL	< -0.25
17	DQWQKADFELRPAH	-0.0647
18	DQYSGWSACSKDRLSAGFLV	< -0.25
19	DRAAAGSVTKFFPRPSTQVR	< -0.25
20	DRAAIWLYGRFSTDSARLV	0.183
21	DRCTHGCDYIRSI	< -0.25
22	DREIEGGIQL	-0.246

# Next part

row,Substance,growth estimate
1,DSSACFTDGACRGP,< -0.25
2,DSSIP,< -0.25
3,DSSSQAWRTVLTPYC,< -0.25
4,DSSTRGRDRSLSQAVVFAPS,-0.245
5,DSTPRSPDVDCCDCVN,< -0.25
6,DSTSLGHRSAFRTRCRRRDT,< -0.25
7,DSVGGATTAYCCNISLSD,< -0.25
8,DSVIDSLSGSRGSRG,< -0.25
9,DSVREPGPKIWSAKPPCSGS,< -0.25
10,DSYAGSFIVSRRSTRLEGLR,< -0.25
11,DSYIKIGTKTRYKNVGKSL,< -0.25
12,DTAQLLNVIDLYRGCRRNPY,< -0.25
13,DTDTRLIRSTEGDL,-0.246
14,DTFSVSHAGELWSIEIPIRC,< -0.25
15,DTG,-0.247 ± 0.0037
16,DTGMLCSSPKYRTAHCSGP,< -0.25
17,DTGT,< -0.25
18,DTHTARRQRKDWESAGLSSI,< -0.25
19,DTIKVNRTPLLVSGPGLHTA,< -0.25
20,DTITFESSAGSLQ,< -0.25
21,DTL,< -0.25
22,DTLELYR,< -0.25
